Test results taken from paper doi:10.1101/2023.08.25.554800.
No constants are given. Whether binding was seen depends on the method and setting. In cells and extracts the contact can be indirect.

Target: T1, Bit61-TAP (S. cerevisiae) (UniProt P47041)
T1 sequence: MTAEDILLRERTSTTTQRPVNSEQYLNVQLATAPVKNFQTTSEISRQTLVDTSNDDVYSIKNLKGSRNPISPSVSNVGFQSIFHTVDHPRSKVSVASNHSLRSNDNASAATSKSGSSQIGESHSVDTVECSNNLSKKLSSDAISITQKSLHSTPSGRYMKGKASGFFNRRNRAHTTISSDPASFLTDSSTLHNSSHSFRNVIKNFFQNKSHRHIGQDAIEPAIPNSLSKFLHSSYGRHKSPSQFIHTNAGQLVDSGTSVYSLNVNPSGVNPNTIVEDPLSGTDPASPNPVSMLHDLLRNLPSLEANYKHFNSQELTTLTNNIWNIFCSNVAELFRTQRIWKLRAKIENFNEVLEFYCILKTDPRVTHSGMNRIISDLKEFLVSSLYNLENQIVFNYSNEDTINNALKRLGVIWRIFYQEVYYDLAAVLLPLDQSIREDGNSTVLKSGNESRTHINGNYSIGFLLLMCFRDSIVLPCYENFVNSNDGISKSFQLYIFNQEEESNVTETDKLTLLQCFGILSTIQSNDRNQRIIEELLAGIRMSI
Test: pull-down

B1: Pil1 (native eisosome filaments) (protein, UniProt P53252 1-339)
chain: MHRTYSLRNSRAPTASQLQNPPPPPSTTKGRFFGKGGLAYSFRRSAAGAFGPELSRKLSQLVKIEKNVLRSMELTANERRDAAKQLSIWGLENDDDVSDITDKLGVLIYEVSELDDQFIDRYDQYRLTLKSIRDIEGSVQPSRDRKDKITDKIAYLKYKDPQSPKIEVLEQELVRAEAESLVAEAQLSNITRSKLRAAFNYQFDSIIEHSEKIALIAGYGKALLELLDDSPVTPGETRPAYDGYEASKQIIIDAESALNEWTLDSAQVKPTLSFKQDYEDFEPEEGEEEEEEDGQGRWSEDEQEDGQIEEPEQEEEGAVEEHEQVGHQQSESLPQQTTA
**Q.** With B1 as the binder, how does the binding read?
**A.** no binding

B2: Lsp1 (native eisosome filaments) (protein, UniProt Q12230 1-341)
chain: MHRTYSLRNQRAPTAAELQAPPPPPSSTKSKFFGKASIASSFRKNAAGNFGPELARKLSQLVKTEKGVLRAMEVVASERREAAKQLSLWGADNDDDVSDVTDKLGVLIYELGELQDQFIDKYDQYRVTLKSIRNIEASVQPSRDRKEKITDEIAHLKYKDPQSTKIPVLEQELVRAEAESLVAEAQLSNITREKLKAAYSYMFDSLRELSEKFALIAGYGKALLELLDDSPVTPGEARPAYDGYEASRQIIMDAESALESWTLDMAAVKPTLSFHQTVDDVYEDEDGEEEEEPEIQNGDIPGQVVEEEEVEWTTEVPVDDEAHEADHHVSQNGHTSGSENI
**Q.** How did the binding turn out when B2 was run?
**A.** no binding
